Measured data: PubChem BioAssay AID1259254 (NCATS, 2017)
The deposit covers about 59,000 reagents; below is a part drawn at random. In the full data, about 1,550 (2.6%) are marked active. 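G2 share is only a proxy for re-replication; each gene was hit by three separate siRNAs, and active genes were retested.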 Reagents against one gene are numbered here. Further read-outs or replicates are left out here. Reagent sequences are not shown. Not stated in the record: the amount of reagent.

- Test: 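Gene knock-downs that lead to re-replication, shown by excess G2 DNA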 (primary screen)
- Cell system: human HCT116 colorectal cancer cells
- Reagent: single siRNA against human genes
- Duration: 3 days
- Measured: 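Imaged Hoechst DNA stain sorts each cell into a cycle phase by DNA amount; per plate, G2 fraction set to 0% for non-targeting and 100% for GMNN siRNA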
- Direction: G2 robust z-score and G2 cells, % of GMNN control: higher = more G2 cells, more excess DNA replication
- Hit rule: 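An siRNA counts as active if its G2 robust z-score lies at least 5 MADs above the screen median; here such calls match roughly 38% of GMNN control or more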

TLE3 (TLE family member 3, transcriptional corepressor) #1 showed G2 robust z-score -0.946; G2 cells, % of GMNN control -3.69; inactive.
Knock-down of TLE3 (TLE family member 3, transcriptional corepressor) #2 came out at: G2 robust z-score -0.245; G2 cells, % of GMNN control 1.25; inactive.
Against TLE3 (TLE family member 3, transcriptional corepressor) #3, the values are G2 robust z-score 1.27; G2 cells, % of GMNN control 11.9; inactive.
For GPR18 (G protein-coupled receptor 18) #1 the deposit lists G2 robust z-score -0.762; G2 cells, % of GMNN control -2.39; inactive.
Against GPR18 (G protein-coupled receptor 18) #2, the values are G2 robust z-score 1.95; G2 cells, % of GMNN control 16.7; inactive.
After knock-down of GPR18 (G protein-coupled receptor 18) #3, the screen gave G2 robust z-score -0.568; G2 cells, % of GMNN control -1.03; inactive.
Knock-down of EID2 (EP300 interacting inhibitor of differentiation 2) #1 gave: G2 robust z-score 2.89; G2 cells, % of GMNN control 23.3; inactive.
Knock-down of EID2 (EP300 interacting inhibitor of differentiation 2) #2 came out at: G2 robust z-score -0.354; G2 cells, % of GMNN control 0.479; inactive.
Knock-down of EID2 (EP300 interacting inhibitor of differentiation 2) #3 resulted in: G2 robust z-score 0.0921; G2 cells, % of GMNN control 3.62; inactive.
Depletion of CD81 (CD81 molecule) #1 came out at: G2 robust z-score -0.37; G2 cells, % of GMNN control 0.363; inactive.
CD81 (CD81 molecule) #2 showed G2 robust z-score -0.0357; G2 cells, % of GMNN control 2.72; inactive.
With knock-down of CD81 (CD81 molecule) #3, the screen gave G2 robust z-score -0.751; G2 cells, % of GMNN control -2.32; inactive.
BAHD1 (bromo adjacent homology domain containing 1) #1 scored G2 robust z-score -0.663; G2 cells, % of GMNN control -1.7; inactive.
BAHD1 (bromo adjacent homology domain containing 1) #2 scored G2 robust z-score -1.01; G2 cells, % of GMNN control -4.15; inactive.
Depletion of BAHD1 (bromo adjacent homology domain containing 1) #3 gave: G2 robust z-score -1.5; G2 cells, % of GMNN control -7.62; inactive.
For C10orf62 (chromosome 10 open reading frame 62) #1 the deposit lists G2 robust z-score -0.377; G2 cells, % of GMNN control 0.313; inactive.
C10orf62 (chromosome 10 open reading frame 62) #2 gave G2 robust z-score 0.246; G2 cells, % of GMNN control 4.7; inactive.
Against C10orf62 (chromosome 10 open reading frame 62) #3 the deposit lists G2 robust z-score -0.857; G2 cells, % of GMNN control -3.06; inactive.
With knock-down of AAMDC (adipogenesis associated Mth938 domain containing) #1, the record shows G2 robust z-score -0.314; G2 cells, % of GMNN control 0.76; inactive.
Against AAMDC (adipogenesis associated Mth938 domain containing) #2, the entry reads G2 robust z-score -0.568; G2 cells, % of GMNN control -1.03; inactive.
With knock-down of AAMDC (adipogenesis associated Mth938 domain containing) #3, the record shows G2 robust z-score 3.23; G2 cells, % of GMNN control 25.7; inactive.
For DAZAP1 (DAZ associated protein 1) #1, the values are G2 robust z-score -0.769; G2 cells, % of GMNN control -2.45; inactive.
After knock-down of DAZAP1 (DAZ associated protein 1) #2 the results were G2 robust z-score 0.158; G2 cells, % of GMNN control 4.08; inactive.
Depletion of DAZAP1 (DAZ associated protein 1) #3 gave: G2 robust z-score 3.9; G2 cells, % of GMNN control 30.4; inactive.

Part of the list above, showing only “G2 cells, % of GMNN control”.
CD81 (CD81 molecule) #3: -2.32
BAHD1 (bromo adjacent homology domain containing 1) #1: -1.7
